Experimental findings from PMC9359917 are described below.

The test system of this data set is nucleolin (NCL). As to the kind of experiment: NCL-triggered DNA filament assembly (confocal microscopy and AFM; indirect read-out). The note with it: aptamer used with dual-responsive DNA tile, filaments assemble after NCL, disassemble after ATP; Filaments in 1x TAE with 20 mM MgCl2 (stated for other filament assays); water-in-oil droplets; pH and temperature not given; folded or branched DNA.

The exact form of at least one protein or probe is not confirmed. At least one verdict rests on a figure or table, not on a statement of the authors.

Turning to “GGTGGTGGTGGTTGTGGTGGTGGTGG [Nucleolin aptamer (dual-aptamer reaction)]”, the binding result is recorded as “binds”.
